Measurements: publication PMC8684771
Results are given in words; binding and its absence hold for the method and conditions named. Binding seen in cells or lysates may run through a third protein. Some binding calls cover weakened binding; strength is not graded here.

By UniProt entry, the sequences of proteins in these tests, tags left out.
UniProt Q8R4B8: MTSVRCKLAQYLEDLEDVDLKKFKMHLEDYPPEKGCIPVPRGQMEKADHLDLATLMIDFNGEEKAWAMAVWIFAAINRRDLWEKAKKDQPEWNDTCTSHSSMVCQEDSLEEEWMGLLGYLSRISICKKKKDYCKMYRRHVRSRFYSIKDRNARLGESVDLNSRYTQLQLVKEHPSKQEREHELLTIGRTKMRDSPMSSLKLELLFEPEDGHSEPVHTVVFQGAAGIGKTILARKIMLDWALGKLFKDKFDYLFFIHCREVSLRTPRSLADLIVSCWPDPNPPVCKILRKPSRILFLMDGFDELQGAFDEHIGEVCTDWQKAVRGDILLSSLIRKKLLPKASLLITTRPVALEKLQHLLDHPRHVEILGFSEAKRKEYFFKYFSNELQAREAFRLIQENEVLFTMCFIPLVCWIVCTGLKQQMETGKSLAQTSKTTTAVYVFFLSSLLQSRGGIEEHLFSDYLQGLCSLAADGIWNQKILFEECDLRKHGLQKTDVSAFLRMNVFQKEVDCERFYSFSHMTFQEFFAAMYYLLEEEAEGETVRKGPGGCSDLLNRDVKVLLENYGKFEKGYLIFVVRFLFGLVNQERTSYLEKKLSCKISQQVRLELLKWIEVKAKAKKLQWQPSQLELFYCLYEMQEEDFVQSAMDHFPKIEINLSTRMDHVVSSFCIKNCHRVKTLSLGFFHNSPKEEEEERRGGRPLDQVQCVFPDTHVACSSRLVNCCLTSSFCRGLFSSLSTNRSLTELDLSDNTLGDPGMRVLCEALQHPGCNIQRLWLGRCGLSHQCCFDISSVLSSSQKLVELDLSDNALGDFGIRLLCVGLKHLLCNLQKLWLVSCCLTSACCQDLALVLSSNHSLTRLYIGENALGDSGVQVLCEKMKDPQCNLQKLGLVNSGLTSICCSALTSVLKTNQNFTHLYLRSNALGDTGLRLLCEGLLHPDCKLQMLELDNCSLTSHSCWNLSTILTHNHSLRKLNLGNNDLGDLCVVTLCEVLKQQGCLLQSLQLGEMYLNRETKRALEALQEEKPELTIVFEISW
UniProt P12813: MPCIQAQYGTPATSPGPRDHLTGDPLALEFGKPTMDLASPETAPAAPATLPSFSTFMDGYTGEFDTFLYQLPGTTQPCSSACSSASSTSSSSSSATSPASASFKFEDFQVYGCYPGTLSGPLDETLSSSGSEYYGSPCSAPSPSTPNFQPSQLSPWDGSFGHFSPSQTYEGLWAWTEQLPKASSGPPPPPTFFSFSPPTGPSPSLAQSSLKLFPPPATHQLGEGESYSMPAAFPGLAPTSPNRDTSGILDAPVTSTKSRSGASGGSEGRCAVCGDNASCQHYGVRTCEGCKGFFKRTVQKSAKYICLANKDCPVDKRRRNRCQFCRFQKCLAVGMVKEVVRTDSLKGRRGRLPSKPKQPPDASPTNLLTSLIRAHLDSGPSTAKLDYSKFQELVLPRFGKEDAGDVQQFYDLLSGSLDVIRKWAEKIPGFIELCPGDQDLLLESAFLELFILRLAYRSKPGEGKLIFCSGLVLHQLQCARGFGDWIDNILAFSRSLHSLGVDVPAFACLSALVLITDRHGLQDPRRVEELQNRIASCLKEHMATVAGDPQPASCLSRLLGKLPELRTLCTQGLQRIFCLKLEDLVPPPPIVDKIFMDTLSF

Legend:
[1] = biological target: NLR family, pyrin domain containing 3 (NLRP3) (mouse (endogenous in BMDMs)) (UniProt Q8R4B8); assay: co-IP; IP and immunoblot of endogenous proteins in BMDMs; LPS priming (200 ng/ml, 4 h), Nigericin (10 uM) or ATP; WT and NR4A1-/- cells; with or without 6-MP or Csn-B
[2] = biological target: Flag-NLRP3 (UniProt Q8R4B8); assay: co-IP; GFP-NR4A1 and Flag-NLRP3 transfected in HEK293T cells; with Nigericin or ATP

| binding [1] | binding [2] | Substance |
| --- | --- | --- |
| binds |  | NR4A1 (from UniProt P12813 1-601) |
|  | binds | GFP-NR4A1 (from UniProt P12813 1-601) |
